Reference: patent publication US6015838A, “Aqueous film-forming foam compositions” (3M Innovative Properties Company, priority 1996, dated 2000)

Assay: Emulsion polymerization of hexafluoropropylene and vinylidene fluoride with surfactant as emulsifier
Excerpt: The following procedure was used to evaluate C7 F15 CF(CF3)COO^- NH4^+ (from Ex. M1) as an emulsifier to copolymerize hexafluoropropylene (HFP) and vinylidene fluoride.
A 1 gallon, vertically agitated stainless steel reactor with pressure and temperature controls was evacuated and twice purged with nitrogen. Using an isolated vacuum, a solution comprised of 2 g of ammonium persulfate (initiator) and 6 g of dipotassium phosphate dissolved in 2800 g of deionized water was introduced into the reactor. The remaining vacuum on the reactor was vented with nitrogen, and the solution was degassed twice under agitation using alternate vacuum and nitrogen purges. […] The reactor was vented with nitrogen, the solution was agitated very briefly, and the reactor was evacuated of nitrogen and isolated. Then the reactor was vented with hexafluoropropylene monomer to a pressure of approximately 10 psig (1280 torr total pressure), and the temperature of the batch was raised to 72° C. with high agitation. Maintaining the temperature at 72° C., a monomer mixture of 60% (wt) of vinylidene fluoride and 40% (wt) hexafluoropropylene was fed from a tared gas cylinder into the head space of the reactor to maintain a reactor pressure of 130 psig (7480 total pressure). After feeding in about 1 kg of monomer blend (approximately 3.75 hours duration), the introduction of monomer was ceased, the reaction was allowed to cool to room temperature, and any residual unreacted monomer was vented.
The resulting latex polymer was drained from the reactor, and percent solids of the latex was determined to be 25% by weight as measured by drying 10 g of latex in a forced air oven for 16 hours at 105° C.
The reactor body was separated from the reactor head, and a visual inspection of the reactor was made to determine the amount of coagulated polymer in the reactor (the amount should be minimal in a good polymerization reaction). A qualitative rating was assessed, ranging from "none" to "little" to "some."
The latex stability was determined by half filling a 16 oz (450 mL) jar with latex and shaking several hours in the horizontal position, quantitatively rating the latex after shaking using a 3-point scale ranging from 0=very stable to 3=unstable.
Particle size in the latex was determined using […] on a Coulter sub-micron particle size analyzer.
Degree of foaming was rated using the following qualitative scale: 0=not foamy, 1=slightly foamy, 2=moderately foamy, and 3=very foamy.
In Example P2, the same experiment was run as in Example P1, except that the concentration of C7 F15 CF(CF3)COO^- NH4^+ emulsifier was raised to 3500 ppm, the reaction time decreased from 3.75 to 3.5 hours, and the reaction temperature increased from 72° C. to 78° C.
In Comparative Examples P3-P6, the same experiment was run as in Example P1, except that C8 F17 SO2 N(C2 H5)CH2 COO^- K^+ (Fluorad™ FC-128 Fluorochemical Surfactant, available from 3M Company, St. Paul, Minn.), C7 F15 COO^- H4 N^+ (Fluorad™ FC-143 Fluorochemical Surfactant), and Surflon™ S111S Fluorochemical Surfactant (believed to be nominally telomer-based n-C9 F19 COO^- H4 N^+, commercially available from Asahi Glass Corp., Japan) were substituted for C7 F15 CF(CF3)COO^- H4 N^+ emulsifier.

Structure (SMILES)	Coagulation (350 ppm emulsifier)	Coagulation (100 ppm emulsifier)	latex particle Size (3500 ppm emulsifier, 78° C.)	Coagulation (3500 ppm emulsifier, 78° C., listed as C7 F15 CF(CF3)COO^- NH4^+)
N.O=C(O)C(F)(F)C(F)(F)C(F)(F)C(F)(F)C(F)(F)C(F)(F)C(F)(F)C(F)(F)C(F)(F)F [Surflon ™ S111S, n-C9 F19 COO^- H4 N^+]	some			
O=C(O)C(F)(F)C(F)(F)C(F)(F)C(F)(F)C(F)(F)C(F)(F)C(F)(F)F [FC-143, C7 F15 COO^- H4 N^+]	some			
CCN(CC(=O)O)S(=O)(=O)C(F)(F)C(F)(F)C(F)(F)C(F)(F)C(F)(F)C(F)(F)C(F)(F)C(F)(F)F [Fluorad ™ FC-128, C8 F17 SO2 N(C2 H5)CH2 COO^- K^+]	none	some		
O=C(O)C(F)(C(F)(F)F)C(F)(F)C(F)(F)C(F)(F)C(F)(F)C(F)(F)C(F)(F)C(F)(F)F (stereo not shown) [Example M14, C7 F15 CF(CF3)COO^- H4 N^+]	some		69 nm	none and coagulation was eliminated
